Measured values as given in patent publication US20140155466.
The exact form of at least one protein or probe is not confirmed. For some of these results: The comparison behind a weaker result is the experiment's own reference, which may not be listed here.

Columns and labels:
[1] = system: Rabbit anti-human endothelin receptor A antibody, second extracellular loop (ETA-AB) (Oryctolagus cuniculus); experiment: ELONA; conditions: binding shown with either partner immobilized; 0.1 uM aptamer coating saturating; purified native protein; protein details: Acris Antibodies SP 41222P; label: biotin; single-stranded DNA; variant of thrombin-aptamer ARC183
[2] = system: Rabbit anti-human endothelin receptor A antibody, second extracellular loop (ETA-AB) (Oryctolagus cuniculus); experiment: activity in cells; conditions: 100 nM aptamer completely neutralized ETA-AB effect; purified native protein; protein details: Acris Antibodies SP 41222P; single-stranded DNA
[3] = system: Human IgG-3 (Homo sapiens); experiment: binding assay; conditions: data not shown; highest affinity among human IgG subclasses; 73 nM IgG-3 did not affect beta1-AAB neutralization; purified native protein; single-stranded DNA
[4] = system: Human IgG-2 (Homo sapiens); experiment: binding assay; conditions: data not shown; lower affinity than IgG-3; purified native protein; single-stranded DNA
[5] = system: Human IgG-1 (Homo sapiens); experiment: binding assay; conditions: data not shown; lowest of IgG subclasses; purified native protein; single-stranded DNA
[6] = system: Human IgG-4 (Homo sapiens); experiment: binding assay; conditions: data not shown; lower affinity than IgG-3, only marginal difference to IgG-2 and IgG-1; purified native protein; single-stranded DNA
[7] = system: Rabbit anti-human endothelin receptor A antibody, second extracellular loop (ETA-AB) (Oryctolagus cuniculus); experiment: pull-down; conditions: aptamer on NHS-Sepharose column; spiked human serum 50 nM; eluted with 3 M KSCN; purified native protein; protein details: Acris Antibodies SP 41222P; single-stranded DNA

Sequence | binding result [1] | functional effect of the aptamer [2] | binding result [3] | binding result [4] | binding result [5] | binding result [6] | binding result [7]
GGTTGGTGTGGTTGG [biotinylated thrombin-aptamer] | binds | – | – | – | – | – | –
GGTTGGTGTGGTTGG [thrombin-aptamer ARC183] | – | active | binds | binds more weakly | binds more weakly | binds more weakly | binds
